# Assay results taken from PubChem BioAssay AID2685 (National Center for Advancing Translational Sciences (NCATS), 2010).
# The other results are listed elsewhere or left out. Further columns of the screen follow, without active or inactive calls. Most of these compounds were active or inconclusive in the main read-out, so they are no random draw. Words in brackets tell the shape of the fitted curve; partial curves, single points and poor fits give uncertain potencies.
# Assay: qHTS Assay for Lipid Storage Modulators in Drosophila S3 Cells;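 on cell number change: cells counted by Cell Tracker Red CMTPX staining in the red channel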
# Details: BODIPY lipid droplet fluorescence, 18-24 h; for cell number change: measured here: cell count max response, cells fed with added oleic acid
# Method in brief: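 Laser-scanning cytometry quantifies lipid droplet accumulation (500–530 nm total intensity; droplet/cell object ratio) in oleic acid-fed (400 uM added) Drosophila S3 cells treated with a concentration series. 20 uM Triacsin C defined 100% inhibition.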
# [1] = measured here: lipid fluorescence (Fed channel) AC50, cells fed with added oleic acid
# [2] = measured here: cell number channel AC50, cells fed with added oleic acid
Structure (SMILES),cell number change [%],AC50 [1],AC50 [2]
S=C(N/N=C/c1ccc2ncccc2c1)Nc1cccnc1,20,"0.178 µM [rising, full curve, poor fit]",
COC(=O)C(=Cc1ccccc1[N+](=O)[O-])C(=O)OC,-34.9,"3.66 µM [falling, single point]","20.6 µM [falling, partial curve]"
O=C(CN1CCCN(S(=O)(=O)c2ccc(F)cc2)CC1)Nc1cccc(F)c1,16.7,"29.1 µM [falling, single point]",
CCC(=O)N1CCc2cc(S(=O)(=O)N3CCN(C(=O)c4ccco4)CC3)ccc21,-32.6,"0.731 µM [rising, full curve]","18.4 µM [falling, partial curve]"
CC(=O)N1CCN(S(=O)(=O)c2cccc(C(=O)Nc3ccc4c(c3)OCO4)c2)CC1,11.5,,
CN(C)C(CNC(=O)c1cccc(OC(F)F)c1)c1ccco1 (stereo not drawn),8.39,,
CCc1ccc2nc(N(CCCN(C)C)C(=O)c3ccc(S(=O)(=O)N4CCc5ccccc5C4)cc3)sc2c1,0.403,"18.4 µM [falling, single point]",
COc1ccc(-c2[nH]ncc2CN2CCCC2c2nonc2C)c(F)c1 (stereo not drawn),6.48,,
O=C(NC1(C(F)(F)F)OCCO1)c1ccc(F)cc1,9.24,,
CCOc1ccc2nc(SCC(=O)NNC(=O)c3ccco3)c(C)cc2c1,8.26,,
O=C(Nc1cccc(Cl)c1)c1ccc(=O)[nH]n1,8.63,"4.11 µM [rising, partial curve, poor fit]",
Cn1ccnc1SCC(=O)NC1CCCC1,22.2,"1.03 µM [falling, single point]",
N#CC(c1ccccc1)c1ccc2c(C(F)(F)F)cc(C(F)(F)F)nc2n1 (stereo not drawn),-2.96,,"4.61 µM [falling, single point]"
CCCc1nnc(NC(=O)CCC(=O)NCc2ccccc2OC)s1,24.5,,
O=C1NC(=O)C2(CCCc3ccccc32)N1 (stereo not drawn),5.38,"13 µM [rising, partial curve]",
CCCNc1nc(C)c(C(C)=O)cc1C#N,35.8,,"5.8 µM [rising, partial curve, poor fit]"
COc1ccc(-c2cc(=O)c3ccccc3[nH]2)cc1,-20.3,"5.17 µM [falling, full curve]",
O=C(NCc1ccccc1)C1CCCN(S(=O)(=O)c2cccs2)C1 (stereo not drawn),13.6,"2.91 µM [rising, partial curve]",
O=C(NCCc1ccccn1)c1cccc(S(=O)(=O)N2CCc3ccccc32)c1,-112,,"4.61 µM [falling, single point]"
CC(CCc1ccccc1)NC(=O)CCNS(=O)(=O)c1ccccc1 (stereo not drawn),8.5,,
Cn1cc(Br)c(C(=O)N/N=C/c2cc3c(cc2Cl)OCO3)n1,-22.9,"6.51 µM [rising, partial curve, poor fit]",

# Exported as tab-separated lines: part of the list above.
Structure (SMILES)	cell number change [%]	AC50 [1]	AC50 [2]
CCOc1ccc2nc(SCC(=O)NNC(=O)c3ccco3)c(C)cc2c1	8.26		
O=C(Nc1cccc(Cl)c1)c1ccc(=O)[nH]n1	8.63	4.11 µM [rising, partial curve, poor fit]	

# Going on with the list:

Structure (SMILES),cell number change [%],AC50 [1],AC50 [2]
CCOc1ccc(CN2C(=O)c3ccccc3C2=O)cc1C(=O)Nc1nnc(SCC)s1,42.1,"6.51 µM [falling, single point]","32.6 µM [rising, single point]"
Cc1cc(-c2ccc(C)c(S(=O)(=O)NCC3CCN(Cc4ccccc4F)CC3)c2)on1,4.89,"29.1 µM [rising, single point]",
C[C@H](NC(=O)C1CCN(S(=O)(=O)c2ccccc2)CC1)C(=O)NCc1ccccn1,-5.6,"29.1 µM [rising, single point]",
Cc1cc(C)c(S(=O)(=O)n2nc(C)c(Br)c2C)c(C)c1,-2.3,"32.6 µM [falling, single point]",
CC1=CC(C)(C)N=C(Nc2ccc(C)cc2)S1,7.58,"0.82 µM [rising, full curve]","0.517 µM [rising, full curve, poor fit]"
CCOC(=O)c1ccccc1NC1c2ccccc2C(=O)N1c1cc(C)ccn1 (stereo not drawn),-8.12,"0.291 µM [rising, full curve]",
Cc1nc2nc(SCC(=O)NCCCN3CCOCC3)nn2c(C)c1Cc1ccccc1,-10.9,,"0.00461 µM [falling, full curve, poor fit]"
COc1ccc(NC(=O)C(c2ccc(C)cc2)N(C)C(=O)c2cnccn2)cc1 (stereo not drawn),9.87,"23.1 µM [rising, partial curve, poor fit]",
COc1ccc(-c2noc(Cc3ccccc3OC)n2)cc1,3.98,"5.8 µM [rising, partial curve]",
CC(C)(C)N1C(=O)c2ccc(C(=O)Nc3ccc(O)cc3)cc2C1=O,-38.4,,"16.4 µM [falling, single point]"
O=C(NCc1n[nH]c(=S)n1-c1ccc(Cl)c(Cl)c1)c1ccc(S(=O)(=O)N2CCOCC2)cc1,17.4,,
COC(=O)c1ccc(OC(C)C(=O)c2ccc(C)cc2)cc1 (stereo not drawn),-1.76,"6.51 µM [rising, single point]",
Cc1noc(C(=O)NCC2CCCO2)c1Cl (stereo not drawn),0.895,,"7.31 µM [falling, single point]"
COc1ccc(-c2oc3ncnc(N)c3c2-c2ccccc2)cc1,,"2.59 µM [rising, partial curve]","1.64 µM [rising, partial curve]"
O=C(c1cc2c(s1)CCCC2)N1CCN(C(=O)C2CCCO2)CC1 (stereo not drawn),,"0.461 µM [falling, single point]",
CC(C)C(C)NC(=O)CN1C(=O)NC2(CCCc3ccccc32)C1=O (stereo not drawn),-2.54,,
COc1ccccc1NC(=O)Cn1nc(-c2ccc(Cl)cc2)c2ccccc2c1=O,,,"1.3 µM [rising, partial curve]"
COc1cccc(-c2cc(C(=O)Nc3cc(C)n(Cc4ccc(Cl)cc4)n3)no2)c1,,"3.26 µM [rising, partial curve]",
Cc1ccc(S(=O)(=O)N2CCN(C(=O)c3ccc(N4CCCC4)c([N+](=O)[O-])c3)CC2)cc1,-8.71,"0.731 µM [falling, single point]",
COc1cccc2c(C)cc(N3CCCCCC3)nc12,-16,,
Cc1ccc(C(C(=O)NC(C)(C)C)N(C(=O)c2csnn2)c2ccccc2F)o1 (stereo not drawn),3.04,"5.8 µM [falling, full curve]",

Structure (SMILES),cell number change [%],AC50 [1],AC50 [2]
CCN1C(=O)[C@H]2[C@@H](c3ccc(C)cc3)N3C(=O)N(c4ccccc4)C(=O)[C@@]3(Cc3ccc(Cl)cc3)[C@H]2C1=O,9.39,,
O=C(COC(=O)c1ccccc1NCc1ccco1)Nc1ccc2c(c1)OCO2,-33.5,,"29.1 µM [falling, single point]"
CCN1CCCC1CN(Cc1cc2c(C)cc(C)cc2[nH]c1=O)C(=O)NC1CCCCC1 (stereo not drawn),2.2,"16.4 µM [falling, single point]",
O=C(COc1ccc2c3c(c(=O)oc2c1)CCC3)N1CCCCC1,5.13,"29.1 µM [falling, partial curve, poor fit]",
O=C(CP(=O)(c1ccccc1)c1ccccc1)N1CCOCC1,21.9,"13 µM [rising, single point]",
COc1ccc(-n2c(=S)[nH]c3sc(-c4ccccc4)cc3c2=O)c(OC)c1,-9.29,,
CN(CC(=O)Nc1cccc(F)c1)C(=O)c1cccc(N2C(=O)CCC2=O)c1,2.81,,
CCCC1CC(CSC(=N)N)OC1=O (stereo not drawn),-32.9,"0.146 µM [falling, full curve, poor fit]","0.13 µM [falling, full curve]"
O=C(CCc1nnc2ccc(N3CCCC3)nn12)Nc1ccc(F)cc1F,,"6.51 µM [rising, single point]",
COc1ccc(S(=O)(=O)Cc2ccc(C(=O)O)o2)cc1,-23.4,"29.1 µM [falling, single point]",
COc1ccc(C2(CNC(=O)C(=O)Nc3ccc(C)cc3)CCOCC2)cc1,36.3,"3.66 µM [rising, partial curve, poor fit]","23.1 µM [rising, partial curve, poor fit]"
OCCN1CCN(C2Cc3cc(Cl)ccc3Sc3ccc(Cl)cc32)CC1 (stereo not drawn) (tested in a mixture with another compound),-53.7,"16.4 µM [falling, single point]","16.4 µM [falling, single point]"
CCC(C)[C@H](NC(=O)C1CC(=O)N(c2ccc3c(c2)OCCO3)C1)C(=O)N1CCCCC1 (stereo partly drawn),24.5,,
N#CC1=C(N)Oc2nc[nH]c(=O)c2C1c1cccs1 (stereo not drawn),-8.74,"3.26 µM [falling, partial curve, poor fit]",
Cn1c(/C=C/N(Cc2ccccc2)c2ccccc2)c([N+](=O)[O-])c(=O)n(C)c1=O,,"2.31 µM [rising, partial curve, poor fit]",
COc1ccc(OC)c(CN2CCN(C(=O)CNC(=O)c3ccc(C(C)(C)C)cc3)CC2)c1,,"2.06 µM [falling, partial curve]",
O=C1Nc2cc(C(=O)NCCCN3CCOCC3)ccc2S/C1=C/c1ccccc1F,-23,"29.1 µM [falling, single point]",
CCc1ccccc1Nc1nc(N)nc(CSCC(=O)c2cc(C)n(C)c2C)n1,20.9,"4.11 µM [rising, partial curve]",
COc1cc(/C=N/n2nnnc2N)ccc1OCC(N)=O,-20.5,"0.58 µM [rising, full curve]",
CCC(=O)Nc1nc(CC(=O)Nc2ccccc2)cs1,29.9,"7.31 µM [falling, single point]",
O=C(Nc1ccccc1C(=O)N/N=C/c1ccco1)c1ccc(F)cc1,-1.84,"3.26 µM [rising, partial curve]",
